The results in this text go back to the supplement of paper PMC12067093, “Discovery and optimisation of a covalent ligand for TRIM25 and its application to targeted protein ubiquitination” (Chemical Science, 2025).

The chains behind the UniProt entries cited, without tags or fusion partners. Where a name states a change or a piece, a line headed by the entry shows the natural chain unless it says otherwise.
UniProt Q86W92: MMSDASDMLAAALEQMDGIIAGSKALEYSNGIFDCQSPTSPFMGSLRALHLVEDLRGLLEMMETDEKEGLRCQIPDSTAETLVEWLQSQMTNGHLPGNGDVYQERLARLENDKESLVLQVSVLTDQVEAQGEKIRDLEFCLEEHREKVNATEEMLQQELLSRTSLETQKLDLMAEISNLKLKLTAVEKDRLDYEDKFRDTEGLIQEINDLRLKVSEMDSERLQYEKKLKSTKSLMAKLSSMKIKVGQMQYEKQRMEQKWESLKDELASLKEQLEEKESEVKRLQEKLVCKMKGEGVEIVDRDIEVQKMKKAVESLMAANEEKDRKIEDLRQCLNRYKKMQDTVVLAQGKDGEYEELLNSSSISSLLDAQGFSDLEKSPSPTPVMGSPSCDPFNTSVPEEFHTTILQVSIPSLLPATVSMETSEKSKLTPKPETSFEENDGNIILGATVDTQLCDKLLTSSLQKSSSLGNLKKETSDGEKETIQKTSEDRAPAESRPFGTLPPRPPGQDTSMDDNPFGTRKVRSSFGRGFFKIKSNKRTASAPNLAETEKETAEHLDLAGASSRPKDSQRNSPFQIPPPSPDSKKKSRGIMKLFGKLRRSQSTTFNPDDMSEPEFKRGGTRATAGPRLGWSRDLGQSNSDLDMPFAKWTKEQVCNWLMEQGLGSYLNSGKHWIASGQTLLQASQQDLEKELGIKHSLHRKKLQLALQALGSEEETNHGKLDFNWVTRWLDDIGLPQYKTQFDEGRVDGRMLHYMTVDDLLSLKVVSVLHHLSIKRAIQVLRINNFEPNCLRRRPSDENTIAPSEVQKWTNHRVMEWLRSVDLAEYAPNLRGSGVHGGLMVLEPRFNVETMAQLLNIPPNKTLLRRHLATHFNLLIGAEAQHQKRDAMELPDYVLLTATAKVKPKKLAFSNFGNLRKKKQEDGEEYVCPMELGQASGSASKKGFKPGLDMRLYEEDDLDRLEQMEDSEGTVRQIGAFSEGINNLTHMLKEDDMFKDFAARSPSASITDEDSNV
UniProt P28340: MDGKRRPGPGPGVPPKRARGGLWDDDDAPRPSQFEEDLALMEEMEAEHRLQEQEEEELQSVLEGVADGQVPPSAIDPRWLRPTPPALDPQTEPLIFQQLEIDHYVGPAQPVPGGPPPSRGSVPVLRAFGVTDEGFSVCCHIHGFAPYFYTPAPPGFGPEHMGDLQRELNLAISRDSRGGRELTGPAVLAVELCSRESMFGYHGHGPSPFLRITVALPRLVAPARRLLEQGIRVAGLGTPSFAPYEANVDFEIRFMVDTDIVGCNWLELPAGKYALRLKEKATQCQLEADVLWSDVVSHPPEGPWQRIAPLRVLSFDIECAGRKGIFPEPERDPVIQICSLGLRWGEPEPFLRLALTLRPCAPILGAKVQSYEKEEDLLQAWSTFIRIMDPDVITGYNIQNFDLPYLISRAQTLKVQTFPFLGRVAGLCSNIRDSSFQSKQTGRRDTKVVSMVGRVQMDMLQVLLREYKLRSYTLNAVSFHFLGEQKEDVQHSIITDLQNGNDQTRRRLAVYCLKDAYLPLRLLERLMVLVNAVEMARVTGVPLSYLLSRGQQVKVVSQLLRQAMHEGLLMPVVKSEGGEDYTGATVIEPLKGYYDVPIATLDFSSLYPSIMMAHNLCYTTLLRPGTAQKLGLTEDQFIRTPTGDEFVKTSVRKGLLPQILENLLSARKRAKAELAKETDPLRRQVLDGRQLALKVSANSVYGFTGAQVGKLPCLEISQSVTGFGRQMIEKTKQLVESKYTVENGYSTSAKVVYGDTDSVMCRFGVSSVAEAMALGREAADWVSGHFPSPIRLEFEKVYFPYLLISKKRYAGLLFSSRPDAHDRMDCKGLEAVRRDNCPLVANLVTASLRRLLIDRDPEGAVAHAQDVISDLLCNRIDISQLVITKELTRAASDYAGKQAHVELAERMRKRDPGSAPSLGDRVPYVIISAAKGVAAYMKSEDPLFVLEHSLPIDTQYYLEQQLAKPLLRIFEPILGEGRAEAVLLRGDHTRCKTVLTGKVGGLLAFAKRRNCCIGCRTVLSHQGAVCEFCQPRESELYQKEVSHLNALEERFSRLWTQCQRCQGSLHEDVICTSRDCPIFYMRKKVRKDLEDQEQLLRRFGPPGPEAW
UniProt Q7Z3K3: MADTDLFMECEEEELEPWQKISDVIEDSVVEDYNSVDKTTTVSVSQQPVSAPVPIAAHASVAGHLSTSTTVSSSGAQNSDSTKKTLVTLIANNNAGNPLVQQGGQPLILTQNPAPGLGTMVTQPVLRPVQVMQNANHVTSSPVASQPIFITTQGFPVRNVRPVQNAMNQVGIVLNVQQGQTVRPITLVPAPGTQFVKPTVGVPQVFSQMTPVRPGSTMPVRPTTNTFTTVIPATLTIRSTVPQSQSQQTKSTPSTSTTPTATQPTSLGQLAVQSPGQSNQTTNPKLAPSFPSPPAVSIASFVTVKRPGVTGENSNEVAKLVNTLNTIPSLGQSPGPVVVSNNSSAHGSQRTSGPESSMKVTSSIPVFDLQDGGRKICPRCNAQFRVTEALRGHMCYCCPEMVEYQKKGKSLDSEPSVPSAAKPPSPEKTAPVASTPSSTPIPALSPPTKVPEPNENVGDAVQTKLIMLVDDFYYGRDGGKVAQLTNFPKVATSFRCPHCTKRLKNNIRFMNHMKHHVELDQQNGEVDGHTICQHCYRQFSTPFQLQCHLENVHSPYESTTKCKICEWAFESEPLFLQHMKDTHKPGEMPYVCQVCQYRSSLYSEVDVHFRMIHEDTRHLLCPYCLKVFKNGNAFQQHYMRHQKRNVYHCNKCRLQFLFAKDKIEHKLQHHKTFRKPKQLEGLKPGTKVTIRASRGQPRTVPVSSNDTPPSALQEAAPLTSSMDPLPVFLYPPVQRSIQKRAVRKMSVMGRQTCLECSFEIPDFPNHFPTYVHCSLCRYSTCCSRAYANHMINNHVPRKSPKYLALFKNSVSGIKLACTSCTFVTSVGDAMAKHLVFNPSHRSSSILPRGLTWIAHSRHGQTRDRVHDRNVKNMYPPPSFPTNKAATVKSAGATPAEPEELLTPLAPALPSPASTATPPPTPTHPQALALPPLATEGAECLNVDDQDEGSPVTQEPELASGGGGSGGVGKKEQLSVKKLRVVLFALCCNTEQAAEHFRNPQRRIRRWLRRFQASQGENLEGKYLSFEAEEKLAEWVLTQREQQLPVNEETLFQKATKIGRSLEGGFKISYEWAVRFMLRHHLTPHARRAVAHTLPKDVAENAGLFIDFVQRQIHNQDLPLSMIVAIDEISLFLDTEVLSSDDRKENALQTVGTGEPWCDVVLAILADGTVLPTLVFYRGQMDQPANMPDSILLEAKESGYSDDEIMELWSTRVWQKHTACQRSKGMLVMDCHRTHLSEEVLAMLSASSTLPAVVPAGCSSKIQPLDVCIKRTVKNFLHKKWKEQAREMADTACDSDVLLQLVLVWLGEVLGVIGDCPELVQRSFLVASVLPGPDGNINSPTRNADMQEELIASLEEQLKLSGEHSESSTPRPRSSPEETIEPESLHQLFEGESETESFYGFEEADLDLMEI
UniProt Q07864, whole entry, looked up: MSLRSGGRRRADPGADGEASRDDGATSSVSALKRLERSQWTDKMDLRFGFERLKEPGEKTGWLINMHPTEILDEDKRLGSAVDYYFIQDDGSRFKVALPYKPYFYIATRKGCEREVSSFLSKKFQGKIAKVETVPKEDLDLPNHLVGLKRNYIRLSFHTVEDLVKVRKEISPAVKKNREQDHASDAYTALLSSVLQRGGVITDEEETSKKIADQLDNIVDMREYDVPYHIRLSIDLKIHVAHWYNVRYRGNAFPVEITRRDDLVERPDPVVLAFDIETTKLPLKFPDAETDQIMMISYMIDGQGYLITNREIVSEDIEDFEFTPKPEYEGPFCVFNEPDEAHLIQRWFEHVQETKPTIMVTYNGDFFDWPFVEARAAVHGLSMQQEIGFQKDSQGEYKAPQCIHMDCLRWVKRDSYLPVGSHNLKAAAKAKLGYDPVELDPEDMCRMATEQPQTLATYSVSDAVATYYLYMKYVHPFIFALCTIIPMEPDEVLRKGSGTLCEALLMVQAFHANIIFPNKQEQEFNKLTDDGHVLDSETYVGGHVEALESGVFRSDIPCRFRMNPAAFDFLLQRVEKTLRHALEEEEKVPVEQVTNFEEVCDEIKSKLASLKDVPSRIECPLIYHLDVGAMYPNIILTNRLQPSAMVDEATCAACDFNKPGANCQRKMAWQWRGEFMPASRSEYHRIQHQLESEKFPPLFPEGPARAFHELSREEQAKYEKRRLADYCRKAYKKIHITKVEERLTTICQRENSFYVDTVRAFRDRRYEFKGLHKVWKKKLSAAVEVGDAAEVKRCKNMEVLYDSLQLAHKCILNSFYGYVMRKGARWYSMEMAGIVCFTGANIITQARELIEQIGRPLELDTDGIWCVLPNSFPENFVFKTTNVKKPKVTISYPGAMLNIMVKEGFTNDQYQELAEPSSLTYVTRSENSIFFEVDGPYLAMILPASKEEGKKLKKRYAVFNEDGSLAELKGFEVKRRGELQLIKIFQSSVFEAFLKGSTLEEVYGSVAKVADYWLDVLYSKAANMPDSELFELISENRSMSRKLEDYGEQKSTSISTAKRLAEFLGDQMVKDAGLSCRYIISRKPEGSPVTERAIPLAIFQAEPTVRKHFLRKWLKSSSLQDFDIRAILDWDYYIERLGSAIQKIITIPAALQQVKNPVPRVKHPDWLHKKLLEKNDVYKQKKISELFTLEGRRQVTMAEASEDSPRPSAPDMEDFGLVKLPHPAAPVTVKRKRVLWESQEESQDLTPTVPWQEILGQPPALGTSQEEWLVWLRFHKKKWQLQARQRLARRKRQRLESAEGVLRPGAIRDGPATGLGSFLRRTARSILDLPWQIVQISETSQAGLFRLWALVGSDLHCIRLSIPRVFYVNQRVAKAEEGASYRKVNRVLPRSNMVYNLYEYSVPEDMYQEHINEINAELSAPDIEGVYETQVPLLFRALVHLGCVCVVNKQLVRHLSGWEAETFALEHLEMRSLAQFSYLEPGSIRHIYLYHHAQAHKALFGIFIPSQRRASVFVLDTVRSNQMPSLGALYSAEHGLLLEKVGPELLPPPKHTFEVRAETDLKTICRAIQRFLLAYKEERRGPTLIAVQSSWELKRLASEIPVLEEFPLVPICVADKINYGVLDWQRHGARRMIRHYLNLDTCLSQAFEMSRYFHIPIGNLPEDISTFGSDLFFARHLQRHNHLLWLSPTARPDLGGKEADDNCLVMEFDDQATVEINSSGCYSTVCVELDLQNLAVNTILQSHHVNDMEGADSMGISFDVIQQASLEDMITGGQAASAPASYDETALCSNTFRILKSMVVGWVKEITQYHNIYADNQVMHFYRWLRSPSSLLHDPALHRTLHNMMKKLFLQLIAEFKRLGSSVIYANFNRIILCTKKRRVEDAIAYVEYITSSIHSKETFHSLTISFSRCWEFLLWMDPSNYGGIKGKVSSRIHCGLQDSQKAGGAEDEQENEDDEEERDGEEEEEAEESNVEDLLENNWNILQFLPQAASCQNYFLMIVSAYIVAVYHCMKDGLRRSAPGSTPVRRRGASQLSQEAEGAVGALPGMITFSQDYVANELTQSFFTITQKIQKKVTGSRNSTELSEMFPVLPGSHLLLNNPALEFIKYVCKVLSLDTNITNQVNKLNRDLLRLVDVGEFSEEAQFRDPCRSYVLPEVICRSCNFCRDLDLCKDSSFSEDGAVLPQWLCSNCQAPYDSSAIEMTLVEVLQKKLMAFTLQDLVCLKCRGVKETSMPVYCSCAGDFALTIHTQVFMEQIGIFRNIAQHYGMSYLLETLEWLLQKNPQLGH
UniProt Q9UNA4: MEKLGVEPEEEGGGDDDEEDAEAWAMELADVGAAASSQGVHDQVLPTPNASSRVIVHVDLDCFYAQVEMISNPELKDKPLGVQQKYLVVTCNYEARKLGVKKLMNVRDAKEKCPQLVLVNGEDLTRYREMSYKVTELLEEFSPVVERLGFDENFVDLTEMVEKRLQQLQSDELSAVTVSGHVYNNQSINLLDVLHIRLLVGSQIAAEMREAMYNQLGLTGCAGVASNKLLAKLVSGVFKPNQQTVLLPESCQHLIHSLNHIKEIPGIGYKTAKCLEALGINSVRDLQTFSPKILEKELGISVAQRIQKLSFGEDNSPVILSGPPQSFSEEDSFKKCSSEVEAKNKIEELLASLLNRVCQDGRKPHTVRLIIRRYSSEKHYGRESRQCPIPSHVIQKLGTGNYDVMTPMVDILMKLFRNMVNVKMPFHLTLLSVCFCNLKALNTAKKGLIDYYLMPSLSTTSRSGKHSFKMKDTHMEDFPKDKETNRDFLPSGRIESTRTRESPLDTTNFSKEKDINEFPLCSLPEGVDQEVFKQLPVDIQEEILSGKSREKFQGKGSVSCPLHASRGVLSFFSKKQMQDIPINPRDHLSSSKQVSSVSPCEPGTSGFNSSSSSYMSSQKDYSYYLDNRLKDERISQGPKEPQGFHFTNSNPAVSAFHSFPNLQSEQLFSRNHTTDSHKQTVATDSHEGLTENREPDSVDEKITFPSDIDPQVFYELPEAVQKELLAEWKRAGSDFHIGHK

Some of the results follow.

Compound in the assay: Cc1cc(ccc1-c1ccccc1)C(=O)N1CCCN(CC1)C(=O)CCl [compound 10]
As to the kind of experiment: probe-labelled cysteine peptide fold change vs DMSO (competition) (log2 fold change); higher = less target engagement (more negative = stronger competition). Particulars: THP-1, incubation time: 4 h.
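Note: competitive profiling in live THP-1 cells: cysteine peptides tagged with an iodoacetamide desthiobiotin (IA-DTB) probe, intensity after compound treatment relative to DMSO-treated cells.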

“PPIE_Q9UNP9_176_CLCTHEK (UniProt Q9UNP9)”: the “probe-labelled cysteine peptide fold change” value runs as follows: (10 µM) 0.0495; (50 µM) -0.0221.
Turning to “POLR1A_O95602_446_SVICPDMYINTNEIGIPMVFATK (UniProt O95602)”, the “probe-labelled cysteine peptide fold change” value is, setting by setting: (10 µM) -0.0365; (50 µM) 0.128.
For “PPFIBP1_Q86W92_140_IRDLEFCLEEHREK (UniProt Q86W92)”, the “probe-labelled cysteine peptide fold change” value is, setting by setting: (10 µM) 0.00949; (50 µM) -0.0866.
In the same order, the values of “POLR2A_P24928_451_HMCDGDIVIFNR (UniProt P24928)” are -0.0734 and -0.107.
Consider “POLD1_P28340_873_LLIDRDPEGAVAHAQDVISDLLCNR (UniProt P28340)”, for which the “probe-labelled cysteine peptide fold change” value (10 µM) came to 0.104 and the “probe-labelled cysteine peptide fold change” value (50 µM) was -0.0328.
As to “POLRMT_O00411_591_LLAEMLVQATQMPCSLDK (UniProt O00411)”, the “probe-labelled cysteine peptide fold change” value by setting is: (10 µM) 0.104; (50 µM) -0.802.
In the same order, the values of “POLR2G_P62487_127_HSIPSEMEFDPNSNPPCYK (UniProt P62487)” are -0.102 and -0.0372.
Turning to “POGZ_Q7Z3K3_987_VVLFALCCNTEQAAEHFR (UniProt Q7Z3K3)”, the “probe-labelled cysteine peptide fold change” value was 0.104 (10 µM) and -0.122 (50 µM).
Turning to “POLE_Q07864_1935_IHCGLQDSQK (UniProt Q07864)”, the “probe-labelled cysteine peptide fold change” value is -0.268 (10 µM) and -0.334 (50 µM).
With “POLR2I_P36954_119_LYYVCTAPHCGHR (UniProt P36954)”, the “probe-labelled cysteine peptide fold change” value is -0.26 (10 µM) and -0.215 (50 µM).
As to “POLD1_P28340_1026_TVLSHQGAVCEFCQPR (UniProt P28340)”, the “probe-labelled cysteine peptide fold change” value is -0.0141 (10 µM) and -0.243 (50 µM).
In the same order, the values of “POLI_Q9UNA4_336_CSSEVEAK (UniProt Q9UNA4)” are -0.318 and -0.711.
In the same order, the values of “POLE_Q07864_2221_LMAFTLQDLVCLK (UniProt Q07864)” are 0.251 and -0.257.
Take “POLR2B_P30876_984_MTIGHLIECLQGK (UniProt P30876)”: the “probe-labelled cysteine peptide fold change” value by setting is: (10 µM) 0.0338; (50 µM) -0.213.
